Results are given in words; binding and its absence hold for the method and conditions named. Binding seen in cells or lysates may run through a third protein. Some binding calls cover weakened binding; strength is not graded here.
Columns and labels:
[1] = molecular target: HA-V1B2 (HA-tagged V-ATPase V1 domain subunit B2, Atp6v1b2) (mouse) (UniProt P62814); assay: co-IP; anti-HA magnetic beads, HA-V1B2 as bait; lysates of iCas9 MEFs expressing HA-V1B2 and Flag-Voa1, Flag-Voa2 or Flag-Voa3, control or Wdr7, Dmxl1 or Dmxl2 iKO; V1-Vo IP buffer (40 mM HEPES pH 7.4, 150 mM NaCl, 2 mM EDTA, 2.5 mM MgCl2, 5% glycerol, 1% Triton X-100), 2 h at 4 °C; immunoblotting
[2] = molecular target: HA-V1B2 (HA-tagged V-ATPase V1 domain subunit B2, Atp6v1b2) (mouse) (UniProt P62814); assay: co-IP; anti-HA magnetic beads, HA-V1B2 as bait; lysates of wild-type MEFs expressing HA-V1B2 and V5-Wdr7; V1-Wdr7 IP buffer (40 mM HEPES pH 7.4, 150 mM NaCl, 1% Triton X-100), 2 h at 4 °C; immunoblotting

The chains behind the UniProt entries cited, without tags or fusion partners.
UniProt P62814: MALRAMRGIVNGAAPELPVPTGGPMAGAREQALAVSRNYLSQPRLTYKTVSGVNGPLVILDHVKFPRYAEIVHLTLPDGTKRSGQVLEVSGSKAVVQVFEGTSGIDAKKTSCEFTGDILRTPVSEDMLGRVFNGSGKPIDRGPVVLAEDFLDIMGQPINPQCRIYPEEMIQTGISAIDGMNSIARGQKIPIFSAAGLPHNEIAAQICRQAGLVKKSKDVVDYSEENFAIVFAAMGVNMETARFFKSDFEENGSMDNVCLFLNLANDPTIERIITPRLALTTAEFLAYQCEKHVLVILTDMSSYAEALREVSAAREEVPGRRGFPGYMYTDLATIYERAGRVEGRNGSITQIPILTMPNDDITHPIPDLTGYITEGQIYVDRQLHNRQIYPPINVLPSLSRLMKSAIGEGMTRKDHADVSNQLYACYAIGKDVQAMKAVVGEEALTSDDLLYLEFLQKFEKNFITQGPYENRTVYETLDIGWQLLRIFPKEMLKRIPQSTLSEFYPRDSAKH
UniProt Q9Z1G4: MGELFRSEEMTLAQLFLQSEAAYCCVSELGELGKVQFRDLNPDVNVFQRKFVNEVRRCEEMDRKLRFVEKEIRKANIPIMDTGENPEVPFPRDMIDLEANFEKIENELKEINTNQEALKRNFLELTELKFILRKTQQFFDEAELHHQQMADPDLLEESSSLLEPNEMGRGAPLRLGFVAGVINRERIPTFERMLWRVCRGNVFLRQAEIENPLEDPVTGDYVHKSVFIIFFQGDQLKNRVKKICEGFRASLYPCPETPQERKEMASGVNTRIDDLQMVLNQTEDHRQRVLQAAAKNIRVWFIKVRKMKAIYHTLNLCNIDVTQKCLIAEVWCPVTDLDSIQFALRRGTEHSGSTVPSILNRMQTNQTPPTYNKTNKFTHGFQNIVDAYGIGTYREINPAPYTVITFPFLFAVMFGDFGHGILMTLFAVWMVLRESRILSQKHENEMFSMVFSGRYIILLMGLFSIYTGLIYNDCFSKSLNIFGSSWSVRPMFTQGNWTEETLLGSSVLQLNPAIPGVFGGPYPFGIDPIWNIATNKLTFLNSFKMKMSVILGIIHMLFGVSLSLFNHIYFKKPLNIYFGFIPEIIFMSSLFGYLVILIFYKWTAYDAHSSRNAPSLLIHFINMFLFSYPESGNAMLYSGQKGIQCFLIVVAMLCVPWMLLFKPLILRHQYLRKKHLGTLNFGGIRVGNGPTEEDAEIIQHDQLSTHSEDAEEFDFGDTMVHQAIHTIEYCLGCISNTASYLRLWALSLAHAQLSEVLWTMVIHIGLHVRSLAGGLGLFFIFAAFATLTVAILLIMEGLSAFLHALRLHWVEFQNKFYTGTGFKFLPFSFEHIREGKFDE
UniProt P15920: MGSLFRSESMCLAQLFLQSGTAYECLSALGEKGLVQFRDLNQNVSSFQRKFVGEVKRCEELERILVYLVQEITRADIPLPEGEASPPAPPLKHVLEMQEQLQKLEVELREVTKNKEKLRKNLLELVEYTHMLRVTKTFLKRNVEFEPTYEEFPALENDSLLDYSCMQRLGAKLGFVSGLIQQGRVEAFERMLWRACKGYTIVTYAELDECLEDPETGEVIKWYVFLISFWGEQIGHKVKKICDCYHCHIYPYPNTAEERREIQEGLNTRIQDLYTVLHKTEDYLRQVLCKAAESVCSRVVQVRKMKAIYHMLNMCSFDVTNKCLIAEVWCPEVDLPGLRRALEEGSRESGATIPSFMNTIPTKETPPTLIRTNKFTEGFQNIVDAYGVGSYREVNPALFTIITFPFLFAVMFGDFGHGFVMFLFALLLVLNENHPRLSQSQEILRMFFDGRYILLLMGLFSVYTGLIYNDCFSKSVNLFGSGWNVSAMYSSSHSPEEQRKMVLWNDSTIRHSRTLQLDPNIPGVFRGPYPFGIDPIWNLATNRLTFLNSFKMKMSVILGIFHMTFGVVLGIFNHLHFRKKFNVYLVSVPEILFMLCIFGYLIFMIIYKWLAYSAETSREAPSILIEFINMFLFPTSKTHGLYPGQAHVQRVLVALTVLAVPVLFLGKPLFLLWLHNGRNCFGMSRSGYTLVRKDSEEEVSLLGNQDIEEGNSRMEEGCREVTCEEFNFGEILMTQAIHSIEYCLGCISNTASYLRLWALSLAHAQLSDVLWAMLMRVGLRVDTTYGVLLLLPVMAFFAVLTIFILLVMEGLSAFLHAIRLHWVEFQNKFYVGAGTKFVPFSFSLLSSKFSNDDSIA
UniProt Q920I9: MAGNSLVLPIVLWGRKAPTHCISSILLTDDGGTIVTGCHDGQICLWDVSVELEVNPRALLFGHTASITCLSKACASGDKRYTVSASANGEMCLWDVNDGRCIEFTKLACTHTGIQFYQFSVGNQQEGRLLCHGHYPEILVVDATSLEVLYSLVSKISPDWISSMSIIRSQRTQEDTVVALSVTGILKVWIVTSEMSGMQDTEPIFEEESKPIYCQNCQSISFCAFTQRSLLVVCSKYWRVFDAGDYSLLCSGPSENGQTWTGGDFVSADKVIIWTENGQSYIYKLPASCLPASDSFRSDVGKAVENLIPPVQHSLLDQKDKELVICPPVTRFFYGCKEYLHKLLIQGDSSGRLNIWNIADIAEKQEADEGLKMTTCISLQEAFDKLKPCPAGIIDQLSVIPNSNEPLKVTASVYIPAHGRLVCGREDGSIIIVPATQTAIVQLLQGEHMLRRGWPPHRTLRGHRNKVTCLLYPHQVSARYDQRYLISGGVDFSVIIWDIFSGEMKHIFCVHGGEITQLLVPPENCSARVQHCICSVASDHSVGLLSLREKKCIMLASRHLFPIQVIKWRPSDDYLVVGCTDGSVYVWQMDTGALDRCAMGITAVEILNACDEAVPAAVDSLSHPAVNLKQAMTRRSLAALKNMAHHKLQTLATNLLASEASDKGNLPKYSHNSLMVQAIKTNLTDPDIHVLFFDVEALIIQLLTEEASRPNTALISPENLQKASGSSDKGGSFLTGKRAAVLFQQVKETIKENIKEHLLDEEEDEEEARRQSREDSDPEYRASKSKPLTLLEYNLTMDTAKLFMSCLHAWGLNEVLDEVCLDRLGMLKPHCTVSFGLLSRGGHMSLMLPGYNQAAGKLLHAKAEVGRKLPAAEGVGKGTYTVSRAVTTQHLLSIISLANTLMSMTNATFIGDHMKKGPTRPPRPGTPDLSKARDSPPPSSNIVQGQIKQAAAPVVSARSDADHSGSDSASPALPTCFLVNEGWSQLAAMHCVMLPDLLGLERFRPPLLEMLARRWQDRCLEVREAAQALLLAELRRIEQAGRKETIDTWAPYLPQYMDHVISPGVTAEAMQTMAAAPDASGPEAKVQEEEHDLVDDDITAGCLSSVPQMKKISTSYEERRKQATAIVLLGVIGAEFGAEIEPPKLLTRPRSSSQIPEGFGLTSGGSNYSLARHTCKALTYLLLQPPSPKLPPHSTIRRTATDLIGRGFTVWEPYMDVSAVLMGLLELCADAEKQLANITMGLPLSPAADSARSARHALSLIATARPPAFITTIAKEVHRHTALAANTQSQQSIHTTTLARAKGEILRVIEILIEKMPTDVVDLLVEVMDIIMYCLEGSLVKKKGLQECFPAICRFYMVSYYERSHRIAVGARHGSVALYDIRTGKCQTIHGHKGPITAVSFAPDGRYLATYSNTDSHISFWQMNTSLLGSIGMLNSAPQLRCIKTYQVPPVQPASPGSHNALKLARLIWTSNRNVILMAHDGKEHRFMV

binding [1]	binding [2]	Substance
binds		Flag-Voa1 (Flag-tagged V-ATPase Vo subunit a1, Atp6v0a1) (from UniProt Q9Z1G4 1-839)
binds		Flag-Voa2 (Flag-tagged V-ATPase Vo subunit a2, Atp6v0a2) (from UniProt P15920 1-856)
	binds	V5-Wdr7 (V5-tagged Wdr7) (from UniProt Q920I9 1-1489)
